In patent publication US10953016B2, “Solid dosage form containing quinazoline derivative” (Shionogi & Co., Ltd., priority 2017, dated 2021):
Structures can show the parent of a compound that is named as a salt. Some of these results come from one statement about several compounds together.

Legend:
[1] = Light exposure test of crystals (E isomer by HPLC); type: physicochemical; settings: light exposed sample minus dark control
[2] = Test of solubility in organic solvent; type: physicochemical; settings: summary over 2-propanol, acetone, ethyl acetate; 22° C., 4 hours
Method: The monohydrochloride crystalline form I, monohydrochloride crystalline form V, and free base crystals of the compound represented by formula (I) were each suspended in 2-propanol, acetone, and ethyl acetate, and stirred at 22° C. for 4 hours, and the concentrations of supernatants were measured.

Row | Structure (SMILES) | E isomer (Retention time 38 minutes) Increased amount ([1]; listed as monohydrochloride crystalline form II) [area %] | E isomer (Retention time 38 minutes) Increased amount ([1]; listed as monohydrochloride crystalline form I) [area %] | Concentrations (% by weight) in various organic solvents [2] [% by weight] | E isomer (Retention time 38 minutes) Increased amount [1] [area %]
1 | CC#C/C(=N\OC[C@H]1COCCN1)c1ccc2ncnc(Nc3ccc(OCc4cccc(F)c4)c(Cl)c3)c2c1 [Monohydrochloride crystalline form II] | ≤ 3.8 |  |  | 
2 | CC#C/C(=N\OC[C@H]1COCCN1)c1ccc2ncnc(Nc3ccc(OCc4cccc(F)c4)c(Cl)c3)c2c1 [Monohydrochloride crystalline form I] |  | ≤ 3.8 | ≤ 0.1 | 
3 | CC#C/C(=N\OC[C@H]1COCCN1)c1ccc2ncnc(Nc3ccc(OCc4cccc(F)c4)c(Cl)c3)c2c1 [Monohydrochloride crystalline form VI] |  |  |  | ≤ 3.8
4 | CC#C/C(=N\OC[C@H]1COCCN1)c1ccc2ncnc(Nc3ccc(OCc4cccc(F)c4)c(Cl)c3)c2c1 [Monohydrochloride crystalline form V] |  |  | ≤ 0.1 | ≤ 3.8
